In PubChem BioAssay AID192 (DTP/NCI, 2004):
The list does not hold the whole screen: it is rich in T/C values a quarter to a half above the control, in often repeated tests (any T/C) and in doses without a T/C. Other doses and runs of a compound stand elsewhere. T/C: endpoint of the treated group in % of that of the vehicle group. Some doses have a count of surviving animals in place of a T/C: the source files T/C as zero there, which appears to mark a toxic dose or a test without result, not a measured value. Some doses without a T/C left all or most animals alive at the check, yet need not have been tolerated: survival well below the control is almost never listed, so the zero probably covers shortened survival too. Counts of survivors are from the toxicity check (mostly the fifth day) where no day follows; animals may have died later. Schedules are NCI's codes, read here as Q, the interval in days (D) or hours (H), X, the number of doses. Where survival is the endpoint, the PubChem record calls one and a half times the control and up active, and a quarter to a half above the control has no call in these data; cut-offs in other NCI protocols can differ. Some T/C values carry the count of animals alive at the toxicity check (mostly the fifth day); where none is given, no animal had died by that day.

Test system: BDF1 mice, B16 melanoma ip, median survival T/C
Experiment: NCI In Vivo Anticancer Drug Screen. Data for tumor model B16 Melanoma (intraperitoneal) in B6D2F1 (BDF1) mice
Details: T/C endpoint: median survival time, higher T/C = longer survival
Protocol: The antitumor activity of compounds was measured in mice bearing transplantable tumors. Survival or tumor size were measured and the results are expressed as the measurement made in the treated group (T) divided by the measurement made in the vehicle treated control group (C). The tumor model used in this assay is B16 Melanoma (intraperitoneal) in B6D2F1 (BDF1) mice

[1] = dose: 25.0 mg/kg/injection, schedule: Q01DX009 (ip), vehicle: Klucel (hydroxypropylcellulose) (HPC)
[2] = dose: 50.0 mg/kg/injection, schedule: Q01DX009 (ip), vehicle: Klucel (hydroxypropylcellulose) (HPC)
[3] = dose: 3.12 mg/kg/injection, schedule: Q01DX009 (ip), vehicle: saline
[4] = dose: 400.0 mg/kg/injection, schedule: Q01DX009 (ip), vehicle: saline with Tween-80
[5] = dose: 400.0 mg/kg/injection, schedule: Q01DX009 (ip), vehicle: saline

## CCOC(=O)Oc1c(OC)cc(C(=O)O[C@@H]2C[C@@H]3CN4CCc5c([nH]c6cc(OC)ccc56)[C@H]4C[C@@H]3[C@H](C(=O)OC)[C@H]2OC)cc1OC
dose: 3.12 mg/kg/injection, schedule: Q01DX009 (ip), vehicle: Klucel (hydroxypropylcellulose) (HPC)
  survivor count: 10 of 10
dose: 12.5 mg/kg/injection, schedule: Q01DX009 (ip), vehicle: Klucel (hydroxypropylcellulose) (HPC)
  survivor count: 9 of 10
[1]
  survivor count: 10 of 10
[2]
  survivor count: 10 of 10

## CSc1ccc2c(c1)N(CCCN(C)C)c1ccccc1S2
[3]
  T/C: 148 % of control

## CCOC(=O)c1ccc(OC(=O)Nc2ccccc2OC)cc1
[4]
  survivor count: 10 of 10

## CC(C)NNC(=O)C(N)CCC(=O)O (stereo not given)
[5]
  survivor count: 10 of 10

## COC(=O)Nc1cccc(-c2nc3ccc(NC(=O)OC)cc3c(=O)n2-c2ccccc2)c1
dose: 16.0 mg/kg/injection, schedule: Q01DX009 (ip), vehicle: saline
  T/C: 148 % of control
dose: 25.0 mg/kg/injection, schedule: Q04DX006 (ip), vehicle: saline
  T/C: 126 % of control
dose: 32.0 mg/kg/injection, schedule: Q01DX009 (ip), vehicle: Klucel (hydroxypropylcellulose) (HPC)
  T/C: 127 % of control [9 of 10 alive]
dose: 32.0 mg/kg/injection, schedule: Q01DX009 (ip), vehicle: saline
  T/C: 146 % of control
dose: 64.0 mg/kg/injection, schedule: Q01DX009 (ip), vehicle: Klucel (hydroxypropylcellulose) (HPC)
  survivor count: 4 of 10
dose: 75.0 mg/kg/injection, schedule: Q04DX006 (ip), vehicle: saline
  T/C: 125 % of control
dose: 128.0 mg/kg/injection, schedule: Q01DX009 (ip), vehicle: Klucel (hydroxypropylcellulose) (HPC)
  survivor count: 0 of 10
dose: 128.0 mg/kg/injection, schedule: Q01DX009 (ip), vehicle: saline
  T/C: 131 % of control [9 of 10 alive]
dose: 200.0 mg/kg/injection, schedule: Q04DX005 (ip), vehicle: other
  survivor count: 9 of 9
dose: 256.0 mg/kg/injection, schedule: Q01DX009 (ip), vehicle: Klucel (hydroxypropylcellulose) (HPC)
  survivor count: 0 of 10
dose: 256.0 mg/kg/injection, schedule: Q01DX009 (ip), vehicle: saline
  survivor count: 10 of 10

## CN(C)c1ccc2cc(S(=O)(=O)O)cc(O)c2c1
[4]
  survivor count: 6 of 6

## O=S1(=O)CC(Cl)(Br)C1 (tested in a mixture with another compound)
dose: 200.0 mg/kg/injection, schedule: Q01DX009 (ip), vehicle: Klucel (hydroxypropylcellulose) (HPC)
  survivor count: 2 of 10
dose: 400.0 mg/kg/injection, schedule: Q01DX009 (ip), vehicle: Klucel (hydroxypropylcellulose) (HPC)
  survivor count: 0 of 10

## Cc1ccc(Cl)cc1NC(=O)Nc1ccc(Cl)c(Cl)c1
dose: 300.0 mg/kg/injection, schedule: Q01DX009 (ip), vehicle: Klucel (hydroxypropylcellulose) (HPC)
  survivor count: 10 of 10

## O=C1C=C(C2OC(CO)C(O)C2O)C(=O)N1 (stereo not given)
dose: 3.13 mg/kg/injection, schedule: Q01DX009 (ip), vehicle: Klucel (hydroxypropylcellulose) (HPC)
  survivor count: 10 of 10
[1]
  survivor count: 1 of 10
[2]
  survivor count: 0 of 10
dose: 100.0 mg/kg/injection, schedule: Q01DX009 (ip), vehicle: Klucel (hydroxypropylcellulose) (HPC)
  survivor count: 0 of 10

## O=C(CCCN1CCC2(CC1)C(=O)NCN2c1ccccc1)c1ccc(F)cc1
dose: 0.19 mg/kg/injection, schedule: Q01DX009 (ip), vehicle: saline
  survivor count: 9 of 10
[3]
  survivor count: 3 of 10

## CCc1c2cc(OC)c(OC)cc2cc2c3cc(OC)c(OC)cc3cc[n+]12 (tested in a mixture with another compound)
dose: 300.0 mg/kg/injection, schedule: Q01DX009 (ip), vehicle: saline with Tween-80
  survivor count: 5 of 10

## COP12(OCCO1)SC(C(F)(F)F)=C(C(F)(F)F)S2
dose: 50.0 mg/kg/injection, schedule: Q01DX009 (ip), vehicle: saline with Tween-80
  survivor count: 10 of 10
dose: 100.0 mg/kg/injection, schedule: Q01DX009 (ip), vehicle: saline with Tween-80
  survivor count: 1 of 10
dose: 200.0 mg/kg/injection, schedule: Q01DX009 (ip), vehicle: saline with Tween-80
  survivor count: 0 of 10
[4]
  survivor count: 0 of 10

## CC(CO)NC(=O)C1C=C2c3cccc4[nH]cc(c34)CC2N(C)C1 (stereo not given)
dose: 100.0 mg/kg/injection, schedule: Q01DX009 (ip), vehicle: saline
  survivor count: 10 of 10
[5]
  survivor count: 7 of 10
